The record followed here is article PMC4384122.

Amino acid sequences for entries named in this document (tags omitted). A change or cut given only in a name is not applied to a line headed by its entry.
UniProt P23258: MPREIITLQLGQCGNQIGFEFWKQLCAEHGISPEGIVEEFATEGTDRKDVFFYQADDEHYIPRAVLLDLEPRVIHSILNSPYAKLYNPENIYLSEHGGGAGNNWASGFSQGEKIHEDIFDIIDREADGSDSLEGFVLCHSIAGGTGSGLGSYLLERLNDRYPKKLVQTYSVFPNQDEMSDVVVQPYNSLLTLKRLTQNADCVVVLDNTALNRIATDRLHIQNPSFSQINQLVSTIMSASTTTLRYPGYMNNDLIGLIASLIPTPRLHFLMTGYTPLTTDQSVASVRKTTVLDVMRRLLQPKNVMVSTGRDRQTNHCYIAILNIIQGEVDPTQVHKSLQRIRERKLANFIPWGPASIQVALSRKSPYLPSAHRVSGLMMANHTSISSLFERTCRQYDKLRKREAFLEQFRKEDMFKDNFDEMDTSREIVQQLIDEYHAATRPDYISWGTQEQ
UniProt P00519: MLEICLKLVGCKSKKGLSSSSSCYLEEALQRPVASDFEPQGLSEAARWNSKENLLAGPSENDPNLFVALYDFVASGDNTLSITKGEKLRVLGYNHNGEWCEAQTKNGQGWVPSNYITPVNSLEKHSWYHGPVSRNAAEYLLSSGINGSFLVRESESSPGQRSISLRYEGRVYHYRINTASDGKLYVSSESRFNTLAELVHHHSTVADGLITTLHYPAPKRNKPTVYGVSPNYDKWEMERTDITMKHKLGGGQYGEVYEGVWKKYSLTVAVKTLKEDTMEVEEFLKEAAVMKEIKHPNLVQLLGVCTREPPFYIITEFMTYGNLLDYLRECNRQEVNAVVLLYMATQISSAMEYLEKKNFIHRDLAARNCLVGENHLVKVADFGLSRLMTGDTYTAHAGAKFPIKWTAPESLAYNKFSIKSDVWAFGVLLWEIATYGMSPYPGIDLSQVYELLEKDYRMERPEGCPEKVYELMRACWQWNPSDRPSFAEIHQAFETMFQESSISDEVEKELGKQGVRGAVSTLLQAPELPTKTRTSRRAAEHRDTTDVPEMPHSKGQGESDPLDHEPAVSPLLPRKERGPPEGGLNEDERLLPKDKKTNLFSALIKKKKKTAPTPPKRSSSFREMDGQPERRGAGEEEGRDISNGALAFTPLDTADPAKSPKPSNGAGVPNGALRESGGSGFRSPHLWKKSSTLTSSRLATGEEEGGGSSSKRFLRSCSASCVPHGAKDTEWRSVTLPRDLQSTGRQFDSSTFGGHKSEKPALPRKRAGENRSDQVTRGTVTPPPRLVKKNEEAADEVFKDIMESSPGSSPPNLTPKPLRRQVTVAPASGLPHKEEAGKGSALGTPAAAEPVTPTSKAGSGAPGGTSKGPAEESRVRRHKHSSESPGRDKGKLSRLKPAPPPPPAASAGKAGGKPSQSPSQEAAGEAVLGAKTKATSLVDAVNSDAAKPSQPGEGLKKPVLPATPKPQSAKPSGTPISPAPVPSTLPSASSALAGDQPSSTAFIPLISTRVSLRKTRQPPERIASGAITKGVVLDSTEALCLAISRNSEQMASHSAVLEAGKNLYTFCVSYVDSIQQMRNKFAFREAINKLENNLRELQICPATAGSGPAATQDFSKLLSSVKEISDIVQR
UniProt Q15717: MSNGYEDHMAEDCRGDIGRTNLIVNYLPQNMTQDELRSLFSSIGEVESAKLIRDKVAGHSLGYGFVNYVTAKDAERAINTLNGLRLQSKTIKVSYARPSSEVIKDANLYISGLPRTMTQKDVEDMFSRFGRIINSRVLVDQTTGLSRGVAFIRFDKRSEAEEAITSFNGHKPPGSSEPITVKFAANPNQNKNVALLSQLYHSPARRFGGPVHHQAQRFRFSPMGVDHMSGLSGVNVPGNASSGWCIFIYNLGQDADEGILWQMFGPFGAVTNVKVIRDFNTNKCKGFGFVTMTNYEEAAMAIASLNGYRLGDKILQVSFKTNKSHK

In this experiment the target is γ-tubulin, endogenous (human (endogenous in U251)) (UniProt P23258). As to the kind of experiment: co-IP; immunoprecipitation with γ-tubulin antibody on IP matrix from U251 cell lysates, 6 h at 4 °C; cells in control condition or treated with EGF/bFGF; rabbit IgG as control; Western blot.

No constants are given. Whether binding was seen depends on the method and setting. Binding seen in cells or lysates may run through a third protein. Binding can be weak; no strength is given.

In the case of “Abl-1 kinase, endogenous (from UniProt P00519 1-1130) (enzyme)”, the binding result is given as “binds”.

In the case of “EGFR, endogenous (from UniProt P00533 25-1210) (receptor)”, the binding entry is reported as “no binding”. Consider “HuR (mRNA binding protein HuR), endogenous (from UniProt Q15717 1-326)”, for which the binding entry is “binds”.
